Measured values: US20240108753A1, “NUCLEIC ACID DELIVERY” (NUNTIUS THERAPEUTICS LIMITED, priority 2021, published 2024)
Some results were stated once for a whole list of compounds, not compound by compound.

Tested on: immune cells
Experiment: Immune cell targeting: uptake of labelled mRNA after intravenous injection (flow cytometry)
Format: in vivo, mice
Details: spleen; NP=0.15:1; 2 hrs post-injection
Experimental: Fifteen 5-7-week-old female CD-1 mice (Charles River UK) were dosed with 1 mg/kg of either mRNA labelled with Alexa Fluor488 only or mRNA labelled with Alexa Fluor488 with NTX1 and DOTMA/DOPE or mRNA labelled with Alexa Fluor488 with G1,2-RL, 3-LR and DOTMA/DOPE or mRNA labelled with Alexa Fluor488 with G1,2-RL, 3-LR and DOTMA/DOPE, respectively, via intravenous injection using a dose volume of 5 ml/kg. Group 1 received vehicle and Group 5 received mRNA alone as controls. Mice in al groups were culled 2 hours post IV administration. At the time of euthanasia, whole blood, spleen, inguinal lymph nodes and femurs were collected from all mice. White Blood Cells (WBC) were obtained from EDTA treated whole blood, spleen, inguinal lymph nodes and bone marrow for flow cytometry analysis. In short, bone marrow (BM) was flushed from femurs, and spleens and lymph nodes were processed to single cell suspensions by passing them through a 70 μm filter. Red blood cells in blood, BM and spleen were lysed before isolated WBCs from all tissues were stained with different antibody panels to identify specific sub-populations of immune cells. The staining was performed in a 96-well plate format before samples were analysed using an ACEA Novocyte 3005 flow cytometer.

Question: For “(LR)8(KRL)4(KRL)2KGSCGAASSLNIAXRXRRBRRXRRBRXB-NH2 [NTX1]”, which “monocytes/macrophages, neutrophils, and dendritic cells with delivered mRNA” value is on record?
Answer: Its value is no less than 5%.
